PubChem BioAssay AID504764 – Drosophila RNAi Screening Center | 2011
The screen tested about 22,000 reagents; below is an unselected part of those that have a named target and a result. In the full data, 403 (1.9%) were called active. 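Unnormalised raw counts per well; ratio z-scores behind the hit calls and whether each hit raises or lowers signal are not deposited.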 Not stated in the record: the amount of reagent.

- Screen: 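Genome-wide screen for regulators of Notch-driven gene expression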 (primary screen)
- Cell system: Drosophila Kc167 cells
- Reagent: long dsRNA against Drosophila genes
- Time to read-out: about 5 days (4 days dsRNA, then 24 h after transfection)
- Treatment: transfection of constitutively active membrane-tethered Notch lacking the extracellular domain, read 24 h later
- Measured: 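Firefly luciferase from an E(spl)m3 reporter with active Notch, plus control-promoter and uninduced reporter wells for normalisation; unnormalised counts, duplicate wells a and b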
- Reading the numbers: induced reporter light, run 1, well a and induced reporter light, run 1, well b: higher = more light from the Notch target reporter with active Notch; control promoter light, run 1, well a and control promoter light, run 1, well b: higher = more light from the viral control promoter (cell number, transfection, viability); uninduced reporter light, run 1, well a: higher = more light from the Notch target reporter without active Notch
- Rule for the call: 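Wells with low control signal or poorly matching duplicates excluded; duplicates averaged; per source plate, z beyond ±2 for induced/control log2 ratio or beyond ±1.8 for induced/uninduced marks a hit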
- Calls: active = modifier hit (raised or lowered Notch signal); inactive = not a hit

The opening 2 records, to show the layout:
Gene | amplicon | induced reporter light, run 1, well a | induced reporter light, run 1, well b | control promoter light, run 1, well a | control promoter light, run 1, well b | uninduced reporter light, run 1, well a | outcome
CG14739 | DRSC14959 | 55310 | 70580 | 52460 | 54450 | 2670 | inactive
mmd | DRSC19672 | 13250 | 12965 | 15085 | 12640 | 6410 | inactive

Results, from the start:
Gene | amplicon | induced reporter light, run 1, well a | induced reporter light, run 1, well b | control promoter light, run 1, well a | control promoter light, run 1, well b | uninduced reporter light, run 1, well a | outcome
CG14739 | DRSC14959 | 55310 | 70580 | 52460 | 54450 | 2670 | inactive
mmd | DRSC19672 | 13250 | 12965 | 15085 | 12640 | 6410 | inactive
mmd | DRSC19673 | 63180 | 81120 | 1.14e5 | 73575 | 12385 | inactive
mmd | DRSC20161 | 78440 | 69095 | 74315 | 66625 | 10160 | inactive
CG31635 | DRSC02273 | 2.27e5 | 2.00e5 | 2.03e5 | 2.16e5 | 14160 | inactive
CG31635 | DRSC02274 | 1.16e5 | 1.29e5 | 1.06e5 | 84500 | 13220 | inactive
sac | DRSC12237 | 35330 | 30505 | 32420 | 30040 | 2780 | inactive
CG8915 | DRSC20119 | 1.10e5 | 1.05e5 | 92385 | 44170 | 8650 | inactive
CG8492 | DRSC10984 | 1.53e5 | 1.59e5 | 1.75e5 | 1.46e5 | 7525 | inactive
Prp16 | DRSC19538 | 33190 | 55900 | 37115 | 27770 | 2255 | inactive
Prp16 | DRSC19542 | 55960 | 50100 | 49160 | 57345 | 8400 | inactive
CG16721 | DRSC18113 | 1.91e5 | 1.59e5 | 2.42e5 | 2.08e5 | 14978 | inactive
TpnC47D | DRSC07564 | 1.24e5 | 1.10e5 | 1.78e5 | 1.87e5 | 11185 | inactive
Tg | DRSC03047 | 1.38e5 | 1.56e5 | 1.01e5 | 1.10e5 | 22142 | inactive
Tie | DRSC08104 | 1.38e5 | 1.21e5 | 85870 | 87360 | 13585 | inactive
Tie | DRSC08702 | 1.72e5 | 1.22e5 | 1.16e5 | 83945 | 7838 | active
Jhbp15 | DRSC15217 | 2.15e5 | 1.99e5 | 2.22e5 | 2.22e5 | 15065 | inactive
Socs36E | DRSC02455 | 2.29e5 | 2.30e5 | 2.16e5 | 1.94e5 | 18315 | inactive
cag | DRSC07587 | 1.65e5 | 1.97e5 | 1.99e5 | 2.08e5 | 17570 | inactive
gol | DRSC04689 | 2.05e5 | 2.40e5 | 1.87e5 | 2.35e5 | 14245 | inactive
